From patent US8716480B2, “7-aryl-1,2,4-triazolo[4,3-a]pyridine derivatives and their use as positive allosteric modulators of mGluR2 receptors” (Janssen Pharmaceuticals, Inc., priority 2009, dated 2014)
At least one structure is not confirmed: it was looked up by name or label, or the drawing left a doubt.

Test system: Male mice (C57BL/6)
Assay: Reversal of memantine-induced brain activation ([14C]2DG uptake) in mice
Format: in vivo
Details: mouse brain
Method: Reversal of Memantine-Induced Brain Activation in Mice NMDA receptor hypofunction is hypothesized to be involved in schizophrenia.
Autoradiographic assessment of radiolabeled [^14C]-2-deoxyglucose ([^14C]2DG) uptake is commonly used to investigate brain activation. In humans, cerebral blood flow is increased in specific brain regions after administration of a subanaesthetic dose of ketamine.
Male mice (C57BL/6, weight 24-28 g, fasted overnight; n=10 animals per group) were treated with vehicle or test compound (s.c.) in randomized order (t=0 min). Memantine (20 mg/kg, s.c.) was injected 30 min later (t=30 min). At t=45 min, [^14C]2DG (0.16 μCi/g) was administered intraperitoneally (i.p.), followed by a 45 min uptake period. Animals were decapitated (t=90 min), plasma glucose levels measured, the brain removed, rapidly frozen and stored at −20° C. until sectioned. […] Local tissue [^14C]concentration (nCi/mg tissue equivalent—TEQ-) in each region of interest was determined.
Data was analyzed statistically using a two-way ANOVA analysis followed by post-hoc tests (memantine response versus reversal by the compound). The results are shown in table 5 below, expressed as lowest active dose (L.A.D.) required to exert a statistically significant (p<0.05) reduction of 2DG uptake in the hippocampus compared to memantine response.

## CN1CCN(C2=Nc3cc(Cl)ccc3Nc3ccccc32)CC1 [clozapine, reference compound]
  effect on memantine-induced brain glucose metabolism / 2DG uptake (in words): reversed
